Laboratory results: PubChem BioAssay AID652243 (Drosophila RNAi Screening Center, 2013)

Assay: 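Knock-downs that decrease or increase androgen receptor reporter signal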 (primary screen)
Cell system: Drosophila S2R+ cells
Reagent: long dsRNA against Drosophila genes
Duration: 72 h (48 h, then 24 h hormone)
Treatment: synthetic androgen R1881 at 10 nM for 24 h
Measurement: 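Per-well raw luminescence of the androgen-driven firefly reporter and of the Renilla control, two replicates each, without normalisation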
Scale: firefly reporter light: higher = more light from androgen-responsive reporter; Renilla control light: higher = more constitutive control signal (cell number, transfection)
Rule for the call: 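Hit when the log firefly-to-Renilla ratio dropped or increased by a fixed fold versus the mean of GFP or LacZ controls across duplicate plates; lowering cut given as 1.5 and as 3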
Calls: active = hit: reporter lowered or raised; inactive = no hit
The deposit covers about 24,000 reagents; below is a random part of those that have a named target and a result. In the full data, 246 (1%) are marked active. 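Plates not normalised; calls are printed but the firefly/Renilla ratio behind them is not deposited; fold cut for lowering reported inconsistently.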 Raw values vary from plate to plate and are shown uncorrected. Not stated in the record: the amount of reagent.

For CG3708 [DRSC18646] the deposit lists firefly reporter light, replicate 1 = 4.17e5; firefly reporter light, replicate 2 = 3.40e5; Renilla control light, replicate 1 = 2.85e6; Renilla control light, replicate 2 = 2.28e6; inactive.
With knock-down of CG5958 [DRSC02915], the record shows firefly reporter light, replicate 1 = 1.03e5; firefly reporter light, replicate 2 = 1.14e5; Renilla control light, replicate 1 = 1.03e6; Renilla control light, replicate 2 = 1.06e6; inactive.
After knock-down of Nmt [DRSC11236], the record shows firefly reporter light, replicate 1 = 3.13e5; firefly reporter light, replicate 2 = 1.86e5; Renilla control light, replicate 1 = 3.99e6; Renilla control light, replicate 2 = 1.71e6; inactive.
With knock-down of mtg [DRSC16256], the record shows firefly reporter light, replicate 1 = 1.03e5; firefly reporter light, replicate 2 = 1.12e5; Renilla control light, replicate 1 = 1.69e6; Renilla control light, replicate 2 = 1.33e6; inactive.
mtg [DRSC24674] scored firefly reporter light, replicate 1 = 8.70e5; firefly reporter light, replicate 2 = 8.34e5; Renilla control light, replicate 1 = 9.99e5; Renilla control light, replicate 2 = 9.40e5; inactive.
Knock-down of CG15753 (retired record) [DRSC18982] came out at: firefly reporter light, replicate 1 = 7.22e5; firefly reporter light, replicate 2 = 6.55e5; Renilla control light, replicate 1 = 2.06e6; Renilla control light, replicate 2 = 1.85e6; inactive.
Silencing of CG15753 (retired record) [DRSC19503] gave: firefly reporter light, replicate 1 = 1.11e5; firefly reporter light, replicate 2 = 85910; Renilla control light, replicate 1 = 5.72e5; Renilla control light, replicate 2 = 6.72e5; inactive.
For CG15753 (retired record) [DRSC19716] the deposit lists firefly reporter light, replicate 1 = 3.62e5; firefly reporter light, replicate 2 = 3.11e5; Renilla control light, replicate 1 = 2.71e6; Renilla control light, replicate 2 = 2.36e6; inactive.
For CG15753 (retired record) [DRSC19717], the entry reads firefly reporter light, replicate 1 = 3.20e5; firefly reporter light, replicate 2 = 3.51e5; Renilla control light, replicate 1 = 1.68e6; Renilla control light, replicate 2 = 2.09e6; inactive.
For CG15753 (retired record) [DRSC22985] the deposit lists firefly reporter light, replicate 1 = 7.31e5; firefly reporter light, replicate 2 = 1.12e6; Renilla control light, replicate 1 = 1.28e6; Renilla control light, replicate 2 = 1.68e6; inactive.
After knock-down of krz [DRSC16979], the screen gave firefly reporter light, replicate 1 = 1.48e5; firefly reporter light, replicate 2 = 1.36e5; Renilla control light, replicate 1 = 1.66e6; Renilla control light, replicate 2 = 2.17e6; inactive.
Caf1-180 [DRSC17807] scored firefly reporter light, replicate 1 = 62009; firefly reporter light, replicate 2 = 1.11e5; Renilla control light, replicate 1 = 5.38e5; Renilla control light, replicate 2 = 8.28e5; inactive.
Caf1-180 [DRSC24150] gave firefly reporter light, replicate 1 = 9.31e5; firefly reporter light, replicate 2 = 8.77e5; Renilla control light, replicate 1 = 1.06e6; Renilla control light, replicate 2 = 9.06e5; inactive.
